# Cell number after 72 h of treatment

Compounds and concentrations:
BI-D1870: CC(C)CCN1c2nc(Nc3cc(F)c(O)c(F)c3)ncc2N(C)C(=O)C1C (stereo not drawn) at 0.2 µM
PF-04217903: OCCn1cc(-c2cnc3nnn(Cc4ccc5ncccc5c4)c3n2)cn1 at 1 µM
OSI-906: C[C@]1(O)C[C@@H](c2nc(-c3ccc4ccc(-c5ccccc5)nc4c3)c3c(N)nccn32)C1 at 0.4 µM
SNS-032: CC(C)(C)c1cnc(CSc2cnc(NC(=O)C3CCNCC3)s2)o1 at 0.01 µM

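Human melanoma cells were exposed to two drugs together for 72 h in 1,536-well plates and read by automated microscopy after fixing and staining. Each value is the count of nuclei relative to DMSO-treated wells, in %, so that 100 equals the control. Every drug was used at one fixed concentration, the lower of two screened (a fifth of the higher). These are primary screening values without error estimates.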
This is part of the screen, not chosen by result.
A dash means that no value is listed here.

Cell line,SNS-032 and OSI-906,OSI-906 and PF-04217903,PF-04217903 and BI-D1870,SNS-032 and PF-04217903,BI-D1870 and SNS-032,BI-D1870 and OSI-906
COLO 829,104,108,111,97.2,92.0,108
A2058,89.2,86.0,105,115,98.3,91.8
A375,66.2,80.6,101,83.5,97.7,-
LB2518-MEL,81.7,86.6,107,102,90.0,91.0
A101D,97.8,91.0,92.3,108,85.4,89.6
COLO 792,94.5,77.8,98.2,102,93.8,73.9
IPC-298,98.2,93.3,96.4,104,97.8,87.8
G-361,92.0,97.2,99.2,103,101,83.6
COLO 800,40.1,112,84.2,84.3,83.9,41.5
MEL-HO,85.4,96.9,78.5,96.6,84.5,96.8
LOX IMVI,88.7,81.1,89.6,101,90.3,87.0
IST-MEL1,91.5,95.8,100,90.9,98.7,108
501mel,-,-,97.3,-,90.1,84.5
C32,98.7,86.1,97.4,86.0,83.8,101

Once more, the final 2:

Cell line	SNS-032 and OSI-906	OSI-906 and PF-04217903	PF-04217903 and BI-D1870	SNS-032 and PF-04217903	BI-D1870 and SNS-032	BI-D1870 and OSI-906
501mel	-	-	97.3	-	90.1	84.5
C32	98.7	86.1	97.4	86.0	83.8	101

Values as published with doi:10.1371/journal.pone.0140310, rounded.